Assay results published in patent US20190200664A1, “WATER AND FAT SOLUBLE MICRONUTIENT STABILIZED PARTICLES” (Massachusetts Institute of Technology, priority 2018, published 2019).
The name of at least one read-out is uncertain.

Experiment: Micronutrient recovery after light exposure (280 μW/cm^2)
Assay type: physicochemical
Conditions: 16 hours of light exposure (280 μW/cm^2); non-encapsulated

CCCCCCCCCCCCCCCC(=O)OC/C=C(C)/C=C/C=C(C)/C=C/C1=C(C)CCCC1(C)C [non-encapsulated vitamin A, Retinyl palmitate]
recovery after light exposure: 4±2%
